Test results as given in PMC9452587.
Results are given in words; binding and its absence hold for the method and conditions named. In cells and extracts the contact can be indirect. These calls come from enrichment with a bait or labelling near it, and not all partners need be listed. A no says only that the protein was not detected with the bait.

Chains of the proteins cited; added tags and fusions are not shown. Lines headed by an entry give the natural chain unless they say otherwise; changes in a name come on top.
UniProt P01375: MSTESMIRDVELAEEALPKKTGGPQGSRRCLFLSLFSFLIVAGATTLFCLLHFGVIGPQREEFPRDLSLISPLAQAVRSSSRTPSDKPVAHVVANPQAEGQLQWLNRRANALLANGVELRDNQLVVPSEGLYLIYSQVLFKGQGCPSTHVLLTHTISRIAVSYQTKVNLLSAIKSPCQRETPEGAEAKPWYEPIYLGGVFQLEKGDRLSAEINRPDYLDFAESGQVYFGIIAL

B1: PPP6R3, a regulatory subunit of PP6 (protein, UniProt Q922D4 1-844)
chain: MFWKFDLHSSSHIDTLLEREDVTLKELMDEEDVLQECKAQNRKLIEFLLKAECLEDLVSFIIEEPPQDMDEKIRYKYPNISCELLTSDVSQMNDRLGEDESLLMKLYSFLLNESPLNPLLASFFSKVLSILISRKPEQIVDFLKKKRDFVDLIIKHIGTSAIMDLLLRLLTCIEPPQPRQDVLNWLNEERIIQRLVEIVHPSQEEDRHSNASQSLCEIVRLSRDQMLQVQNSTEPDPLLATLEKQEIIEQLLSNIFHKEKNESAIVSAIQILLTLLETRRPTFEGHIEICPPGMSHSACSVNKSVLEAIRGRLGSFHELLLEPPKKSVMKTTWGILDPPVGNTRLNVIRLISSLLQTNTSSINGDLMELNSIGVILDMFFKYTWNNFLHTQVEICIALILASPFENAENGTITDQDSTGDNLLLKHLFQKCQLIERILEAWDTNEKKQAEGGRRHGYMGHLTRIANCIVHSTDKGPNSALVQQLIKDLPDEVRERWETFCTNSLGETNKRNTVDLAFSDYQMQQMTSNFIDQFGFNDEKFADQDDIGNVSFDRVSDINFTLNTNESGNIALFEACCKERIQQFDDGGSDEEDIWEEKHIAFTPESQRRSSSGSTDSEESTDSEEEDGAKQDLFESSSANTEDKMEVDLNEPPTWSANFDVPMETTHGAPLDSVGSDVWSTEEPMPTKETGWASFSEFTSSLSTKESLRSNSPVEMETSTESVDPLTPGAAALATQPEAPGSMAMEASSDGEEDAESTDKVTETVMNGGMKETLSLTVDAKTETAVFKSEEEKLSTSQDAACKDAEETPEPAEAKCTAPLTPSSSPEQRTDQPSMPSDPSVNGPV
B2: Ankrd44 (protein, UniProt B2RXR6 1-993)
chain: MAVLKLCEQPPLVQAIFSGDPEEIRMLIHKTEDVNALDSEKRTPLHVAAFLGDAEIIELLILSGARVNAKDNMWLTPLHRAVASRSEEAVQVLIKHSADVNARDKNWQTPLHVAAANKAVKCAEVIIPLLSSVNVSDRGGRTALHHAALNGHMEMVNLLLAKGANINAFDKKDRRALHWAAYMGHLDVVALLINHGAEVTCKDKKGYTPLHAAASNGQISVVKHLLNLGVEIDEINVYGNTALHIACYNGQDAVVNELIDYGANVNQPNNSGFTPLHFAAASTHGALCLELLVNNGADVNIQSKDGKSPLHMTAVHGRFTRSQTLIQNGGEIDCVDKDGNTPLHVAARHGHELLINTLITSGADTAKCGIHSMFPLHLAALNAHSDCCRKLLSSGFEIDTPDTFGRTCLHAAAAGGNVECIKLLQSSGADFHKKDKCGRTPLHYAAANCHFHCIKALVTTGANVNETDDWGRTALHYAAASDMDRNKMILGNAHDNSEELERAREVKEKDAALCLEFLLQNDANPSIRDKEGYNSIHYAAAYGHRQCLELLLERTNTGFEESDGGALKSPLHLAAYNGHHQALEVLLQSLVDLDIRDEKGRTALYLAAFKGHTECVEALVNQGASIFVKDNVTKRTPLHASVINGHTLCLRLLLETADNPEVVDVKDAKGQTPLMLAVAYGHIDAVSLLLEKEANVDAVDIVGCTALHRGIMTGHEECVQMLLEQEASILCKDSRGRTPLHYAAARGHATWLNELLQIALSEEDCCLKDNQGYTPLHWACYNGNENCIEVLLEQKCFRKFIGNPFTPLHCAIINGHESCASLLLGAIDPSIVSCRDDKGRTTLHAAAFGDHAECLQLLLRHDAQVNAVDNSGKTALMMAAENGQAGAVDILVNSAQADLTVKDKDLNTPLHLAISKGHEKCALLILDKIQDESLINAKNSALQTPLHIAARNGLKVVVEELLAKGACVLAVDENASRSNGPRSPPGTAVRKEE
B3: Ankrd 52 (protein, UniProt Q8BTI7 1-1076)
chain: MGILSITDQPPLVQAIFSRDVEEVRSLLSQKENINVLDQERRTPLHAAAYVGDVPILQLLLMSGANVNAKDTLWLTPLHRAAASRNEKVLGLLLAHSADVNARDKLWQTPLHVAAANRATKCAEALAPLLSSLNVADRSGRSALHHAVHSGHLETVNLLLNKGASLNVCDKKERQPLHWAAFLGHLEVLKLLVARGADLSCKDRKGYGLLHTAAASGQIEVVKHLLRMGAEIDEPNAFGNTALHIACYLGQDAVAIELVNAGANVNQPNDKGFTPLHVAAVSTNGALCLELLVNNGADVNYQSKEGKSPLHMAAIHGRFTRSQILIQNGSEIDCADKFGNTPLHVAARYGHELLISTLMTNGADTARRGIHDMFPLHLAVLFGFSDCCRKLLSSGQLYSIVSSLSNEHVLSAGFDINTPDSLGRTCLHAAASGGNVECLNLLLSSGADLRRRDKFGRTPLHYAAANGSYQCAVTLVTAGAGVNEADCKGCSPLHYAAASDTYRRAEPHTASSHDAEEDELLKESRRKEAFFCLEFLLDNGADPSLRDRQGYTAVHYAAAYGNRQNLELLLEMSFNCLEDVESTVPVSPLHLAAYNGHCEALKTLAETLVNLDVRDHKGRTALFLATERGSTECVEVLTAHGASALIKERKRKWTPLHAAAASGHTDSLHLLIDSGERADITDVMDAYGQTPLMLAIMNGHVDCVHLLLEKGSTADAADLRGRTALHRGAVTGCEDCLAALLDHDAFVLCRDFKGRTPIHLASACGHTAVLRTLLQAALSTDPLDAGVDYSGYSPMHWASYTGHEDCLELLLEHSPFSYLEGNPFTPLHCAVINNQDSTTEMLLGALGAKIVNSRDAKGRTPLHAAAFADNVSGLRMLLQHQAEVNATDHTGRTALMTAAESGQTAAVEFLLYRGKADLTVLDENKNTALHLACSKGHEKCALMILAETQDLGLINATNSALQMPLHIAARNGLASVVQALLSRGATVLAVDEEGHTPALACAPNKDVADCLALILSTMKPFPPKDAVSPFSFSLLKNCGIAAAKTVGGCGALPHGASCPYSQERHGAIGLDGCYSE
B4: Ankrd28 (protein, UniProt Q505D1 1-1053)
chain: MAFLKLRDQPSLVQAIFNGDPDEVRALIFKKEDVNFQDNEKRTPLHAAAYLGDAEIIELLILSGARVNAKDSKWLTPLHRAVASCSEEAVQILLKHSADVNARDKNWQTPLHIAAANKAVKCAESLVPLLSNVNVSDRAGRTALHHAAFSGHGEMVKLLLSRGANINAFDKKDRRAIHWAAYMGHIEVVKLLVSHGAEVTCKDKKSYTPLHAAASSGMISVVKYLLDLGVDMNEPNAYGNTPLHVACYNGQDVVVNELIDCGANVNQKNEKGFTPLHFAAASTHGALCLELLVGNGADVNMKSKDGKTPLHMTALHGRFSRSQTIIQSGAVIDCEDKNGNTPLHIAARYGHELLINTLITSGADTAKRGIHGMFPLHLAALSGFSDCCRKLLSSGFDIDTPDDFGRTCLHAAAAGGNLECLNLLLNTGADFNKKDKFGRSPLHYAAANCNYQCLFALVGSGASVNDLDERGCTPLHYAATSDTDGKCLEYLLRNDANPGIRDKQGYNAVHYSAAYGHRLCLQLIASETPLDVLMETSGTDMLSDSDNRATISPLHLAAYHGHHQALEVLVQSLLDLDVRNSSGRTPLDLAAFKGHVECVDVLINQGASILVKDYVLKRTPIHAAATNGHSECLRLLIGNAEPQNAVDIQDGNGQTPLMLSVLNGHTDCVYSLLNKGANVDAKDKWGRTALHRGAVTGHEECVDALLQHGAKCLLRDSRGRTPIHLSAACGHIGVLGALLQSATSVDANPAVVDNHGYTALHWACYNGHETCVELLLEQDVFQKIDGNAFSPLHCAVINDNEGAAEMLIDSLGASIVNATDSKGRTPLHAAAFTDHVECLQLLLSQNAQVNSADSTGKTPLMMAAENGQTNTVEMLVSSASADLTLQDKSKNTALHLACGKGHETSALLILEKITDRNLINATNAALQTPLHVAARNGLTMVVQELLGKGASVLAVDENGYTPALACAPNKDVADCLALILATMMPVSSSSPLTSLTFNAINRYTNTSKTVSFEALPIMRNEASSYCSFNNIGGEQEYLYTDVDELNDSDSETY

Each binder was assayed against Flag-TNFα (UniProt P01375) (assay: affinity purification with mass spectrometry; MEFs treated with Flag-TNFα (150 ng/ml) or PBS for 15 min, NP-40 lysis, anti-Flag beads, on-bead trypsin digestion, Q Exactive HF, MaxQuant against UniProt mouse database; only the target purified).

| binding | Binder |
| --- | --- |
| binds | B1 |
| no binding | B2 |
| no binding | B3 |
| no binding | B4 |
